Experimental data reported in PMC12315956.
These are yes or no findings as the source states them, for the method shown. In cells and extracts the contact can be indirect. Here binding means that the protein was enriched with, or labelled near, the bait; the list need not be complete.

Amino acid sequences for entries named in this document (tags omitted).
UniProt P23258: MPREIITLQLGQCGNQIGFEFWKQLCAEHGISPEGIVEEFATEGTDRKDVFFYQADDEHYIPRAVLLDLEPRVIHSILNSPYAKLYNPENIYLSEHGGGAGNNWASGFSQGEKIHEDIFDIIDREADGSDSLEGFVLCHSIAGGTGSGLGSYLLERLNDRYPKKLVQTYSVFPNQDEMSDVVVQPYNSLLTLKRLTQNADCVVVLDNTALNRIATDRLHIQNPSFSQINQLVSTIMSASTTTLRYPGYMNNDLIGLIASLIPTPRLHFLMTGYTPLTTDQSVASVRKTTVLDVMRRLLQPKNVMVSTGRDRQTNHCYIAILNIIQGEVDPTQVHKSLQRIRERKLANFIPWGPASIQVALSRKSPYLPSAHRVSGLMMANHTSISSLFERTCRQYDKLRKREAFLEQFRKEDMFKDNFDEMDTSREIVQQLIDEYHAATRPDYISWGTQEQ
UniProt Q96SN8: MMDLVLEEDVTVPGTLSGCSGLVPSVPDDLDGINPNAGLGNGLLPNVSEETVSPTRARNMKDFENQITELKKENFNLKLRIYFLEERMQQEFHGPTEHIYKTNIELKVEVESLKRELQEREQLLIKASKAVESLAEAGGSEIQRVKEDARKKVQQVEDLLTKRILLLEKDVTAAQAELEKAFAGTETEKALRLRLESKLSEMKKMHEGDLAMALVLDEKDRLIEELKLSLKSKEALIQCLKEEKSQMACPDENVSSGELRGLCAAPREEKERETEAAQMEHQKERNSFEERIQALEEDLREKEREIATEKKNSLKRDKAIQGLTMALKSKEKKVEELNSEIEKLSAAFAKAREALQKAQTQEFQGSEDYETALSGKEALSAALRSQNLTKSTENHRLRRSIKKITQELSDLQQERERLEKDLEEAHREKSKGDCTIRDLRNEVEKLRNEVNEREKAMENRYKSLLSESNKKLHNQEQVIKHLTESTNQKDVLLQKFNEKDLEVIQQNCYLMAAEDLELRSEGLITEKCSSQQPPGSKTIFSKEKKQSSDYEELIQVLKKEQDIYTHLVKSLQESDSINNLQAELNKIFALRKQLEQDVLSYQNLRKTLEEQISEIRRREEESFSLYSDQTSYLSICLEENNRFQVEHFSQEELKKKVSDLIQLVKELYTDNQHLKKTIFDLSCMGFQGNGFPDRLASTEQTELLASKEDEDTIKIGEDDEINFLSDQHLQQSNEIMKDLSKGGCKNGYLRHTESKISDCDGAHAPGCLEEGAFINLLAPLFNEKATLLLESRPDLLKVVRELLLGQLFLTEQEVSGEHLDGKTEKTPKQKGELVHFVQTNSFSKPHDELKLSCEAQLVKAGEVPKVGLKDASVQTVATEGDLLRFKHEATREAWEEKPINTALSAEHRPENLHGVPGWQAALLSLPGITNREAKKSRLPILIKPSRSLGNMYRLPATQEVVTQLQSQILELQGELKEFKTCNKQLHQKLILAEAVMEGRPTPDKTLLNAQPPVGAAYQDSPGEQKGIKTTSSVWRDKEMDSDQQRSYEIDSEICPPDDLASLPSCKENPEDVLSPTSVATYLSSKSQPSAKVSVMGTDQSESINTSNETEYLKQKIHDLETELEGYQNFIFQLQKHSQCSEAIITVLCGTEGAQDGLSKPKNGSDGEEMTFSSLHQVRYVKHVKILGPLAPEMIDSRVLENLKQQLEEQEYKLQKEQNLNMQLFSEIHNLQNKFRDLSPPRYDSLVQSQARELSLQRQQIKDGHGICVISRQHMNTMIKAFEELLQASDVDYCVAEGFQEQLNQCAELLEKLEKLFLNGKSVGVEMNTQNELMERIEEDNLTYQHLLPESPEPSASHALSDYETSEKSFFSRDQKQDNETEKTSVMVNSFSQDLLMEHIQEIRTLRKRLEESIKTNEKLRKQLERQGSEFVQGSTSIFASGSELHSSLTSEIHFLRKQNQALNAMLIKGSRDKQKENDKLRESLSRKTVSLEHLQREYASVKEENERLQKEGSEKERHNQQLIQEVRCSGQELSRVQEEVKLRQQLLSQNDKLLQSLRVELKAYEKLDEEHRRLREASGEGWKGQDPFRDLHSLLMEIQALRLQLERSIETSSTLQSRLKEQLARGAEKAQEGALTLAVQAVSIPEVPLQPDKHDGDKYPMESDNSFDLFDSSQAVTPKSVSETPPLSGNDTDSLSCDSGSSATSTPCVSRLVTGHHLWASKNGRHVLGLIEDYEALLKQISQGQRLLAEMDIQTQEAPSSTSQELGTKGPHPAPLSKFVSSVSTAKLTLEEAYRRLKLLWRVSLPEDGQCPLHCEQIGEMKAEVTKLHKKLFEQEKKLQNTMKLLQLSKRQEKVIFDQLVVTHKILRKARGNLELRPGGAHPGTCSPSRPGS
UniProt Q8N4C6: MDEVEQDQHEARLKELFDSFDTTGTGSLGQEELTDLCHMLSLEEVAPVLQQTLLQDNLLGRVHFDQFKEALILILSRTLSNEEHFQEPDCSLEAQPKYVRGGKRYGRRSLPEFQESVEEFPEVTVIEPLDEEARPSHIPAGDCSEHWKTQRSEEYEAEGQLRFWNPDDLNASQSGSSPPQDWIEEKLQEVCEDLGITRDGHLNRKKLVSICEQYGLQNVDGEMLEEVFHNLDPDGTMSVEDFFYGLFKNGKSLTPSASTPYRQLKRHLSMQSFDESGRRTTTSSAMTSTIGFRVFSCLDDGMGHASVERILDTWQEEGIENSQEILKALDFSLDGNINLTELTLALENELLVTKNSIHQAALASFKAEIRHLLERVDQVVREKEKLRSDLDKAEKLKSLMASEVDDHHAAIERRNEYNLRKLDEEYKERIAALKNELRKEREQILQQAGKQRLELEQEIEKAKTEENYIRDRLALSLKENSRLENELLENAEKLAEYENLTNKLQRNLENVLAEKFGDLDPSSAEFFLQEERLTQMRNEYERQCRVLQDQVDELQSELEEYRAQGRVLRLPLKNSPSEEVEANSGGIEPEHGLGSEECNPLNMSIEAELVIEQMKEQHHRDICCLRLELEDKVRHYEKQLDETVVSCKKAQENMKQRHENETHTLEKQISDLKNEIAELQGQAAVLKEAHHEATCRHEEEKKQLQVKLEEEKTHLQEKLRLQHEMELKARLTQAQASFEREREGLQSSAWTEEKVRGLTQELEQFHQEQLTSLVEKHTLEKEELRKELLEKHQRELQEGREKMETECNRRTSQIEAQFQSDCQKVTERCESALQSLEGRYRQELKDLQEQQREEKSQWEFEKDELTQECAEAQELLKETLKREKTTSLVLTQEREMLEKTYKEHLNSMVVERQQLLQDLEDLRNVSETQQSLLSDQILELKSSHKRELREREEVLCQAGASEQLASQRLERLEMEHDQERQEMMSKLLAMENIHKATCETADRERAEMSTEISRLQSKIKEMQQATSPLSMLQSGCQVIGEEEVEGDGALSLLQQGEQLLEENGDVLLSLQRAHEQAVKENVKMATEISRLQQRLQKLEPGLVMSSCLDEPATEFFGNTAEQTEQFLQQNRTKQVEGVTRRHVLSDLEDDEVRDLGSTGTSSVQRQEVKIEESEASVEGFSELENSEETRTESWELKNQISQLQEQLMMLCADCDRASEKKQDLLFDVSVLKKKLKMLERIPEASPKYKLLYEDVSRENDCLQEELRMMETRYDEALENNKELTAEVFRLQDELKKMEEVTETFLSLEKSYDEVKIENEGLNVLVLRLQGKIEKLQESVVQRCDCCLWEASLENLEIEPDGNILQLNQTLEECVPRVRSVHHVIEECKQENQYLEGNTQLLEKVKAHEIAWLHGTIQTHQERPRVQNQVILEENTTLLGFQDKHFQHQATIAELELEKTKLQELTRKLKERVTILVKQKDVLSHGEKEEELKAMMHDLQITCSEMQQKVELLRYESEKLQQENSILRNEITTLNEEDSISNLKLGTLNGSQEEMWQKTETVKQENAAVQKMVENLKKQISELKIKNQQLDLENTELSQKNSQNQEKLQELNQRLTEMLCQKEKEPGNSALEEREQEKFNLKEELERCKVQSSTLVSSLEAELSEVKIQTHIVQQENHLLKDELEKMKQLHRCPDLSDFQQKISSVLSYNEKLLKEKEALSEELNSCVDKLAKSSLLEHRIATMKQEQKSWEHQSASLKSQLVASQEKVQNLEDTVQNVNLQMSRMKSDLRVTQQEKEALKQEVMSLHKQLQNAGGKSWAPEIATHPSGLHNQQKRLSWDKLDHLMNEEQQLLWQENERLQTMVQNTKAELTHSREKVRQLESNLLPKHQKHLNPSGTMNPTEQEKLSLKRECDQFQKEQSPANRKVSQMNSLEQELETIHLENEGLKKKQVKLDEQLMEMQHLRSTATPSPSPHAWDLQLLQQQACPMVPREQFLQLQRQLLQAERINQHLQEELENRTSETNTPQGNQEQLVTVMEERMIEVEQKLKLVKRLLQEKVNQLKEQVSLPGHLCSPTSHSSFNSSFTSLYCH
UniProt Q9BSJ2: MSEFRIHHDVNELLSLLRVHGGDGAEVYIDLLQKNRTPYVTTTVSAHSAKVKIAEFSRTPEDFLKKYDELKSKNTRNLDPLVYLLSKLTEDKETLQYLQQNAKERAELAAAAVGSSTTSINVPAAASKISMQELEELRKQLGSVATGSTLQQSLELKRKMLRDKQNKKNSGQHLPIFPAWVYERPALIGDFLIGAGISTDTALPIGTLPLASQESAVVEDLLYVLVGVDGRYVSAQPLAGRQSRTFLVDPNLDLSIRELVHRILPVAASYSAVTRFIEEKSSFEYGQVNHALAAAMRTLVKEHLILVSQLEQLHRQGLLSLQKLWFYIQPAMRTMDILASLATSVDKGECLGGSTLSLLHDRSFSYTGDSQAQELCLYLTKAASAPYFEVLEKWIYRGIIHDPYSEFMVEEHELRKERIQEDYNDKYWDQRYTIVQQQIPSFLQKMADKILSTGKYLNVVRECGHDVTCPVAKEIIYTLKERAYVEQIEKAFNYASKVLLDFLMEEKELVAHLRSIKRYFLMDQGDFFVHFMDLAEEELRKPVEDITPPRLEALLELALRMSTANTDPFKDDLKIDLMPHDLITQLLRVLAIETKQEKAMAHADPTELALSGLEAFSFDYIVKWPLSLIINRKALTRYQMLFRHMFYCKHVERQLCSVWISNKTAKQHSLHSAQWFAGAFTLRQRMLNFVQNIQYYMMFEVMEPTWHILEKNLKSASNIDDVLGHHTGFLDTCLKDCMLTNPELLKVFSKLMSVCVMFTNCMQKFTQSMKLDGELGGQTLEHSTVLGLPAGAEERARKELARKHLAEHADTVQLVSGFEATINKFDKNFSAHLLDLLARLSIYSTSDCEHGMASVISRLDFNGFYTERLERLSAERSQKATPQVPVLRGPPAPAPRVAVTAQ
UniProt Q96CW5: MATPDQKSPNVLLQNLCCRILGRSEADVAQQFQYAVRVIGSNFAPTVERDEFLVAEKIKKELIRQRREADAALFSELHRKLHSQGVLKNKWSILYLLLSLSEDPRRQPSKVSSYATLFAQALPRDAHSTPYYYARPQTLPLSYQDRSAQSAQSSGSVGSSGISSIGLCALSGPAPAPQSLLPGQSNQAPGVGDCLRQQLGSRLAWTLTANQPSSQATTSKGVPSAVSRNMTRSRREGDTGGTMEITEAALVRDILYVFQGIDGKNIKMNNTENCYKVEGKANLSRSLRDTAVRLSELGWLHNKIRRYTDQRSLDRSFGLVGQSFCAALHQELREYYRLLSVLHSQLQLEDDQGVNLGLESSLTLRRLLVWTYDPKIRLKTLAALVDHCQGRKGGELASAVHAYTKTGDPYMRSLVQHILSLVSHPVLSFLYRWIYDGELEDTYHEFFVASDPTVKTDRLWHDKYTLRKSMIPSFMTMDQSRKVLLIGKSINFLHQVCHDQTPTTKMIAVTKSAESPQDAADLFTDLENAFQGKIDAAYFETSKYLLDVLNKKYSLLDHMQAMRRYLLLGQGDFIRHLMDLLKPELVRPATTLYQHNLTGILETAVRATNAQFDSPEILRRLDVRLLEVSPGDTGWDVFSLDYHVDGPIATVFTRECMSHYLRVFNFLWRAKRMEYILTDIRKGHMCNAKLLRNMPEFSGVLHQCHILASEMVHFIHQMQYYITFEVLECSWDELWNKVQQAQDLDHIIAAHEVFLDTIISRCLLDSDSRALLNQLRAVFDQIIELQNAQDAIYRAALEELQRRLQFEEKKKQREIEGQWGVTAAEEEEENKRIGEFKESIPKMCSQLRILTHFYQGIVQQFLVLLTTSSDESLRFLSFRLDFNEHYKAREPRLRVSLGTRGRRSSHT

What follows are substances tested against T1, eukaryotic translation initiation factor 2A (human (endogenous in Mel-ST and Mel-STR)) (UniProt Q9BY44) (assay: affinity purification with mass spectrometry; IP of endogenous eIF2A (anti-eIF2A Abcam ab169528 on Dynabeads A) from Mel-ST and Mel-STR lysates, IgG as negative control, with or without RNase I (100 U, 15 min, 25°C), washes in 1x NET buffer, on-bead trypsin digestion, LC-MS/MS; SAINT, BFDR ≤ 0.05).
T1 sequence: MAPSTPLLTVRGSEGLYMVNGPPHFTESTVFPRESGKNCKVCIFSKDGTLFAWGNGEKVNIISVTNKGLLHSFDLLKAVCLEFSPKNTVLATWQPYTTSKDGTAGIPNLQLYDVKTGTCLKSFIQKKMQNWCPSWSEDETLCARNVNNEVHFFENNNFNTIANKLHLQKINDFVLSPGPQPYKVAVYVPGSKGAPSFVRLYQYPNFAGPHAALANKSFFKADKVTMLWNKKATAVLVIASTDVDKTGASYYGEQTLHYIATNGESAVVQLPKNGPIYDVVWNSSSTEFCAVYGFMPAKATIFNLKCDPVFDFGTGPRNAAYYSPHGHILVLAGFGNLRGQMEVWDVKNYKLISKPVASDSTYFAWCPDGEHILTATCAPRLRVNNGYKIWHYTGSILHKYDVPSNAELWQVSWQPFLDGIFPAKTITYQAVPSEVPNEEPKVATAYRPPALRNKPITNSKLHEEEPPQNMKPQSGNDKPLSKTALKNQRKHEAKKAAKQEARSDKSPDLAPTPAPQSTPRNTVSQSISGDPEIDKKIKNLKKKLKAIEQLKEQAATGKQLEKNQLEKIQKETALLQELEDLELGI

binding, binds:
NEDD1 (from UniProt Q8NHV4 1-660), TUBG1 (from UniProt P23258 1-451), CDK5RAP2 (from UniProt Q96SN8 1-1893), NIN (from UniProt Q8N4C6 1-2090), AKAP9 (from UniProt Q99996 1-3907), pericentriolar material 1 (from UniProt Q15154 1-2024), TUBGCP2 (from UniProt Q9BSJ2 1-902), TUBGCP3 (from UniProt Q96CW5 1-907), CEP350 (from UniProt Q5VT06 1-3117)
